These are yes or no findings as the source states them, for the method shown. Some results given as binding are weak or reduced against the parent protein; the word gives no strength. Where a sequence is shown, tags or fusion partners need not be part of it.

Data on one molecule can be found in article PMC11661440.

The target in this test is YFP-TNIK (full-length wild type) (human), Q9UKE5. The test is described as follows: cross-linking; disulfide-linked species of YFP-TNIK immunoprecipitated from HEK293T lysate on GFP-Trap beads (washed with 500 mM NaCl); oxidised with 0, 0.2, 0.5 and 1 mM H2O2 at 30°C for 15 min; nonreducing SDS-PAGE and Western blotting; both purified. Conditions: remark: other sources report otherwise. In general terms: In western blotting, separated proteins are transferred to a membrane and probed.

B1: YFP-TNIK (full-length wild type), Q9UKE5 1-1360 (protein)
chain: MASDSPARSLDEIDLSALRDPAGIFELVELVGNGTYGQVYKGRHVKTGQLAAIKVMDVTGDEEEEIKQEINMLKKYSHHRNIATYYGAFIKKNPPGMDDQLWLVMEFCGAGSVTDLIKNTKGNTLKEEWIAYICREILRGLSHLHQHKVIHRDIKGQNVLLTENAEVKLVDFGVSAQLDRTVGRRNTFIGTPYWMAPEVIACDENPDATYDFKSDLWSLGITAIEMAEGAPPLCDMHPMRALFLIPRNPAPRLKSKKWSKKFQSFIESCLVKNHSQRPATEQLMKHPFIRDQPNERQVRIQLKDHIDRTKKKRGEKDETEYEYSGSEEEEEENDSGEPSSILNLPGESTLRRDFLRLQLANKERSEALRRQQLEQQQRENEEHKRQLLAERQKRIEEQKEQRRRLEEQQRREKELRKQQEREQRRHYEEQMRREEERRRAEHEQEYIRRQLEEEQRQLEILQQQLLHEQALLLEYKRKQLEEQRQAERLQRQLKQERDYLVSLQHQRQEQRPVEKKPLYHYKEGMSPSEKPAWAKEVEERSRLNRQSSPAMPHKVANRISDPNLPPRSESFSISGVQPARTPPMLRPVDPQIPHLVAVKSQGPALTASQSVHEQPTKGLSGFQEALNVTSHRVEMPRQNSDPTSENPPLPTRIEKFDRSSWLRQEEDIPPKVPQRTTSISPALARKNSPGNGSALGPRLGSQPIRASNPDLRRTEPILESPLQRTSSGSSSSSSTPSSQPSSQGGSQPGSQAGSSERTRVRANSKSEGSPVLPHEPAKVKPEESRDITRPSRPASYKKAIDEDLTALAKELRELRIEETNRPMKKVTDYSSSSEESESSEEEEEDGESETHDGTVAVSDIPRLIPTGAPGSNEQYNVGMVGTHGLETSHADSFSGSISREGTLMIRETSGEKKRSGHSDSNGFAGHINLPDLVQQSHSPAGTPTEGLGRVSTHSQEMDSGTEYGMGSSTKASFTPFVDPRVYQTSPTDEDEEDEESSAAALFTSELLRQEQAKLNEARKISVVNVNPTNIRPHSDTPEIRKYKKRFNSEILCAALWGVNLLVGTENGLMLLDRSGQGKVYNLINRRRFQQMDVLEGLNVLVTISGKKNKLRVYYLSWLRNRILHNDPEVEKKQGWITVGDLEGCIHYKVVKYERIKFLVIALKNAVEIYAWAPKPYHKFMAFKSFADLQHKPLLVDLTVEEGQRLKVIFGSHTGFHVIDVDSGNSYDIYIPSHIQGNITPHAIVILPKTDGMEMLVCYEDEGVYVNTYGRITKDVVLQWGEMPTSVAYIHSNQIMGWGEKAIEIRSVETGHLDGVFMHKRAQRLKFLCERNDKVFFASVRSGGSSQVFFMTLNRNSMMNW
Consider B1, for which the binding result is “binds”.
